# The list shows a part of the results.
# How the values were obtained:
# Assay in all cases: glycan array binding signal (z-score within array); higher = stronger binding
# Settings in all cases: glycan notation: IUPAC condensed, linker removed
# [1] = test system: Fuc(a1-2)[Gal(a1-3)]Gal(b1-3)GlcNAc(b1-3)GalNAc
# Summary of the method: (§1)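 Negative Z-scores can be read as non-binding. The Z-score is calculated within each array and then averaged across arrays of one protein sequence at different concentrations or buffers and across linkers. Arrays, 3228 in all, were curated from the Consortium for Functional Glycomics database and kept only where the protein sequence was available.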
# [2] = test system: Fuc(a1-2)[Gal(a1-3)]Gal(b1-3)GlcNAc
# Summary of the method: as §1
# [3] = test system: Fuc(a1-2)[Gal(a1-3)]Gal(b1-4)GlcNAc(b1-2)Man(a1-3)[Fuc(a1-2)[Gal(a1-3)]Gal(b1-4)GlcNAc(b1-2)Man(a1-6)]Man(b1-4)GlcNAc(b1-4)GlcNAc
# Summary of the method: as §1
# [4] = test system: Fuc(a1-2)[Gal(a1-3)]Gal(b1-4)GlcNAc(b1-2)Man(a1-3)[Fuc(a1-2)[Gal(a1-3)]Gal(b1-4)GlcNAc(b1-2)Man(a1-6)]Man(b1-4)GlcNAc(b1-4)[Fuc(a1-6)]GlcNAc
# Summary of the method: as §1
# [5] = test system: Fuc(a1-2)[Gal(a1-3)]Gal(b1-4)GlcNAc(b1-3)GalNAc
# Summary of the method: as §1
# [6] = test system: Fuc(a1-2)[Gal(a1-3)]Gal(b1-4)GlcNAc(b1-6)GalNAc
# Summary of the method: as §1
# [7] = test system: Fuc(a1-2)[Gal(a1-3)]Gal(b1-4)GlcNAc
# Summary of the method: as §1
# [8] = test system: Fuc(a1-2)[Gal(a1-3)]Gal(b1-4)Glc
# Summary of the method: as §1
# [9] = test system: Fuc(a1-2)[Gal(a1-3)]Gal(b1-4)[Fuc(a1-3)]GlcNAc(b1-3)GalNAc
# Summary of the method: as §1
# [10] = test system: Fuc(a1-2)[Gal(a1-3)]Gal(b1-4)[Fuc(a1-3)]GlcNAc
# Summary of the method: as §1
# [11] = test system: Fuc(a1-2)[Gal(a1-3)]Gal(b1-4)[Fuc(a1-3)]Glc
# Summary of the method: as §1
# Fuc(a1-2)[Gal(a1-3)]Gal = test system: Fuc(a1-2)[Gal(a1-3)]Gal
# Summary of the method: as §1
# [12] = test system: Fuc(a1-2)[Gal(a1-4)]Gal(b1-4)GlcNAc
# Summary of the method: as §1
# [13] = test system: Fuc(a1-2)[GalNAc(a1-3)]Gal(b1-3)GalNAc(a1-3)[Fuc(a1-2)]Gal(b1-4)GlcNAc
# Summary of the method: as §1
# [14] = test system: Fuc(a1-2)[GalNAc(a1-3)]Gal(b1-3)GlcNAc(b1-2)Man(a1-3)[Fuc(a1-2)[GalNAc(a1-3)]Gal(b1-3)GlcNAc(b1-2)Man(a1-6)]Man(b1-4)GlcNAc(b1-4)GlcNAc
# Summary of the method: as §1
# [15] = test system: Fuc(a1-2)[GalNAc(a1-3)]Gal(b1-3)GlcNAc(b1-2)Man(a1-3)[Fuc(a1-2)[GalNAc(a1-3)]Gal(b1-3)GlcNAc(b1-2)Man(a1-6)]Man(b1-4)GlcNAc(b1-4)[Fuc(a1-6)]GlcNAc
# Summary of the method: as §1
# [16] = test system: Fuc(a1-2)[GalNAc(a1-3)]Gal(b1-3)GlcNAc(b1-3)GalNAc
# Summary of the method: as §1
# [17] = test system: Fuc(a1-2)[GalNAc(a1-3)]Gal(b1-3)GlcNAc(b1-6)GalNAc
# Summary of the method: as §1
# [18] = test system: Fuc(a1-2)[GalNAc(a1-3)]Gal(b1-3)GlcNAc
# Summary of the method: as §1
# [19] = test system: Fuc(a1-2)[GalNAc(a1-3)]Gal(b1-4)GlcNAc(b1-2)Man(a1-3)[Fuc(a1-2)[GalNAc(a1-3)]Gal(b1-4)GlcNAc(b1-2)Man(a1-6)]Man(b1-4)GlcNAc(b1-4)GlcNAc
# Summary of the method: as §1
# [20] = test system: Fuc(a1-2)[GalNAc(a1-3)]Gal(b1-4)GlcNAc(b1-2)Man(a1-3)[Fuc(a1-2)[GalNAc(a1-3)]Gal(b1-4)GlcNAc(b1-2)Man(a1-6)]Man(b1-4)GlcNAc(b1-4)[Fuc(a1-6)]GlcNAc
# Summary of the method: as §1
# [21] = test system: Fuc(a1-2)[GalNAc(a1-3)]Gal(b1-4)GlcNAc(b1-3)Gal(b1-4)GlcNAc(b1-3)Gal(b1-4)GlcNAc
# Summary of the method: as §1
# [22] = test system: Fuc(a1-2)[GalNAc(a1-3)]Gal(b1-4)GlcNAc(b1-3)Gal(b1-4)GlcNAc
# Summary of the method: as §1
# [23] = test system: Fuc(a1-2)[GalNAc(a1-3)]Gal(b1-4)GlcNAc(b1-3)GalNAc
# Summary of the method: as §1
# [24] = test system: Fuc(a1-2)[GalNAc(a1-3)]Gal(b1-4)GlcNAc
# Summary of the method: as §1
# [25] = test system: Fuc(a1-2)[GalNAc(a1-3)]Gal(b1-4)Glc
# Summary of the method: as §1
# [26] = test system: Fuc(a1-2)[GalNAc(a1-3)]Gal(b1-4)[Fuc(a1-3)]GlcNAc(b1-3)GalNAc
# Summary of the method: as §1
# [27] = test system: Fuc(a1-2)[GalNAc(a1-3)]Gal(b1-4)[Fuc(a1-3)]GlcNAc
# Summary of the method: as §1
# [28] = test system: Fuc(a1-2)[GalNAc(a1-3)]Gal
# Summary of the method: as §1
# [29] = test system: Fuc(a1-2)[GalNAc(a1-4)]Gal(b1-4)GlcNAc
# Summary of the method: as §1
# [30] = test system: Fuc(a1-2)[GalNAc(b1-3)]Gal
# Summary of the method: as §1
# Fuc(a1-3)GlcNAc = test system: Fuc(a1-3)GlcNAc
# Summary of the method: as §1
# [31] = test system: Fuc(a1-3)[Gal(b1-4)]Glc6S
# Summary of the method: as §1
# [32] = test system: Fuc(a1-3)[Gal(b1-4)]GlcNAc(b1-2)Man(a1-3)[Fuc(a1-3)[Gal(b1-4)]GlcNAc(b1-2)Man(a1-6)]Man(b1-4)GlcNAc(b1-4)GlcNAc
# Summary of the method: as §1
# [33] = test system: Fuc(a1-3)[Gal(b1-4)]GlcNAc(b1-2)Man(a1-3)[Fuc(a1-3)[Gal(b1-4)]GlcNAc(b1-2)Man(a1-6)]Man(b1-4)GlcNAc(b1-4)[Fuc(a1-6)]GlcNAc
# Summary of the method: as §1
# [34] = test system: Fuc(a1-3)[Gal(b1-4)]GlcNAc(b1-2)Man
# Summary of the method: as §1
# [35] = test system: Fuc(a1-3)[Gal(b1-4)]GlcNAc(b1-3)Gal(b1-3)[Fuc(a1-4)]GlcNAc
# Summary of the method: as §1
# [36] = test system: Fuc(a1-3)[Gal(b1-4)]GlcNAc(b1-3)GalNAc
# Summary of the method: as §1
# [37] = test system: Fuc(a1-3)[Gal(b1-4)]GlcNAc(b1-4)Gal(b1-4)[Fuc(a1-3)]GlcNAc(b1-4)Gal(b1-4)[Fuc(a1-3)]GlcNAc
# Summary of the method: as §1
# [38] = test system: Fuc(a1-3)[Gal(b1-4)]GlcNAc(b1-4)Gal(b1-4)[Fuc(a1-3)]GlcNAc
# Summary of the method: as §1
# [39] = test system: Fuc(a1-3)[Gal(b1-4)]GlcNAc(b1-6)GalNAc
# Summary of the method: as §1
# [40] = test system: Fuc(a1-3)[Gal(b1-4)]GlcNAc(b1-6)[Gal(b1-3)GlcNAc(b1-3)]Gal(b1-4)Glc
# Summary of the method: as §1
# [41] = test system: Fuc(a1-3)[Gal(b1-4)]GlcNAc(b1-6)[Neu5Ac(a2-3)Gal(b1-3)]GalNAc
# Summary of the method: as §1
# [42] = test system: Fuc(a1-3)[Gal(b1-4)]GlcNAc6S
# Summary of the method: as §1
# [43] = test system: Fuc(a1-3)[Gal(b1-4)]GlcNAc
# Summary of the method: as §1
# [44] = test system: Fuc(a1-3)[Gal3S(b1-4)]GlcNAc6S
# Summary of the method: as §1
# [45] = test system: Fuc(a1-3)[Gal3S(b1-4)]GlcNAc
# Summary of the method: as §1
# [46] = test system: Fuc(a1-3)[GalNAc(b1-4)]GlcNAc6S
# Summary of the method: as §1
# [47] = test system: Fuc(a1-3)[GalNAc(b1-4)]GlcNAc
# Summary of the method: as §1
# [48] = test system: Fuc(a1-3)[GalNAc3S(b1-4)]GlcNAc
# Summary of the method: as §1
# Fuc(a1-4)GlcNAc = test system: Fuc(a1-4)GlcNAc
# Summary of the method: as §1
# Fuc(b1-3)GlcNAc = test system: Fuc(b1-3)GlcNAc
# Summary of the method: as §1
substance,measurement,setting,value
"Wza (Escherichia coli), P0A930",glycan array binding signal (z-score),[1],-1.15
same,glycan array binding signal (z-score),[2],-0.582
same,glycan array binding signal (z-score),[3],-0.458
same,glycan array binding signal (z-score),[4],-0.699
same,glycan array binding signal (z-score),[5],-1.57
same,glycan array binding signal (z-score),[6],1.02
same,glycan array binding signal (z-score),[7],-0.06
same,glycan array binding signal (z-score),[8],-0.311
same,glycan array binding signal (z-score),[9],-0.073
same,glycan array binding signal (z-score),[10],-0.129
same,glycan array binding signal (z-score),[11],-1.47
same,glycan array binding signal (z-score),Fuc(a1-2)[Gal(a1-3)]Gal,-0.594
same,glycan array binding signal (z-score),[12],-1.63
same,glycan array binding signal (z-score),[13],-0.097
same,glycan array binding signal (z-score),[14],0.941
same,glycan array binding signal (z-score),[15],-0.894
same,glycan array binding signal (z-score),[16],2.39
same,glycan array binding signal (z-score),[17],2.07
same,glycan array binding signal (z-score),[18],-0.77
same,glycan array binding signal (z-score),[19],-0.891
same,glycan array binding signal (z-score),[20],0.324
same,glycan array binding signal (z-score),[21],0.187
same,glycan array binding signal (z-score),[22],-1.42
same,glycan array binding signal (z-score),[23],-0.598
same,glycan array binding signal (z-score),[24],-0.975
same,glycan array binding signal (z-score),[25],-0.58
same,glycan array binding signal (z-score),[26],1.59
same,glycan array binding signal (z-score),[27],-0.059
same,glycan array binding signal (z-score),[28],-0.285
same,glycan array binding signal (z-score),[29],-0.737
same,glycan array binding signal (z-score),[30],0.246
same,glycan array binding signal (z-score),Fuc(a1-3)GlcNAc,1.15
same,glycan array binding signal (z-score),[31],-0.318
same,glycan array binding signal (z-score),[32],0.433
same,glycan array binding signal (z-score),[33],0.915
same,glycan array binding signal (z-score),[34],0.907
same,glycan array binding signal (z-score),[35],0.451
same,glycan array binding signal (z-score),[36],0.32
same,glycan array binding signal (z-score),[37],0.548
same,glycan array binding signal (z-score),[38],-1.29
same,glycan array binding signal (z-score),[39],0.934
same,glycan array binding signal (z-score),[40],-0.532
same,glycan array binding signal (z-score),[41],-0.799
same,glycan array binding signal (z-score),[42],-0.512
same,glycan array binding signal (z-score),[43],0.212
same,glycan array binding signal (z-score),[44],-1.25
same,glycan array binding signal (z-score),[45],-1.1
same,glycan array binding signal (z-score),[46],1.08
same,glycan array binding signal (z-score),[47],-1.12
same,glycan array binding signal (z-score),[48],-0.098
same,glycan array binding signal (z-score),Fuc(a1-4)GlcNAc,-0.957
same,glycan array binding signal (z-score),Fuc(b1-3)GlcNAc,1.51

# Random excerpt: two records from the list, in no set order.
substance,measurement,setting,value
"Wza (Escherichia coli), P0A930",glycan array binding signal (z-score),[33],0.915
same,glycan array binding signal (z-score),[6],1.02
